For at least one compound, name, drawing or mass did not settle the structure.
Test system: intractable trigeminal neuralgia
Test: Case history: intractable trigeminal neuralgia
Format: in vivo, human
Conditions: person; treatments tried before the combination; relief attributed to placebo effects
Description: A person suffered from intractable trigeminal neuralgia of many years standing. […] They then were treated with lofepramine, 70 mg bd, together with L-phenylalanine, 500 mg bd.

## C[C@H]1C[C@@H]2[C@H]([C@@H](O)C[C@@]3(C)[C@H]2CC[C@]3(O)C(=O)CO)[C@@]2(C)C=CC(=O)C=C12 [methylprednisolone]
  pain relief with earlier treatments: None had provided more than transient relief for a few days

Reference: patent US6989380B2, “Treatment of pain” (The WKK Trust, priority 1996, dated 2006)
